# For at least one compound, name, drawing or mass did not settle the structure.
# System: Rac1
# Assay: Rac1 activity assay (pull-down)
# Format: cell-based, human
# Conditions: LY294002 10 μM
# Method: These were performed and quantified using the commercially available kit according to the manufacturer's instruction (Cytoskeleton, Denver, Colo.). After signal starvation, HMVEC-L were treated with vehicle, Ang-1 (100 ng/ml) with or without inhibitor for the indicated time and harvested with lysis buffer. Following a brief centrifugation to remove cell debris, lysates from the cells containing equivalent protein concentrations were incubated for 60 minutes with 40 μL slurry of a GST-fusion protein composed of Rac1 or RhoA effector proteins coupled to agarose beads. After washing with lysis buffer, samples were subjected to immunoblotting and detected with anti-Rac1 or anti-RhoA antibody (Santa Cruz Biotechnology, Santa Cruz, Calif.). Whole cell lysates were also run to determine the total amount of Rac1 or RhoA protein.
structure (smiles),measurement,value
"O=c1cc(N2CCOCC2)oc2c(-c3ccccc3)cccc12 [LY294002, reference compound]",effect on Ang-1-induced activation of Rac1,blocked

# Source: patent publication US20130252821A1, “METHODS AND COMPOSITIONS FOR THE TREATMENT AND DIAGNOSIS OF DISEASES CHARACTERIZED BY VASCULAR LEAK, HYPOTENSION, OR A PROCOAGULANT STATE” (Beth Israel Deaconess Medical Center, Inc., priority 2005, published 2013)
